Measurements from article PMC11859184 (Pharmaceuticals, 2025).

What was measured:
[1] = Radiation dosimetry, mouse organs/tissues and PC-3 tumor xenografts (OLINDA); type: in vivo; conditions: for Radiation absorbed dose, PC-3 tumor (1 g): Unit Density Sphere Model
[2] = Radiation dosimetry extrapolated to adult human male (OLINDA, ICRP 89); type: in vivo; conditions: for Effective dose: whole-body, per injected radioactivity; for Estimated radiation absorbed dose, Adrenals / Estimated radiation absorbed dose, Brain / Estimated radiation absorbed dose, Esophagus / Estimated radiation absorbed dose, Eyes / Estimated radiation absorbed dose, Gallbladder wall / Estimated radiation absorbed dose, Heart / Estimated radiation absorbed dose, Kidneys / Estimated radiation absorbed dose, Left colon / Estimated radiation absorbed dose, Liver / Estimated radiation absorbed dose, Lungs / Estimated radiation absorbed dose, Pancreas / Estimated radiation absorbed dose, Prostate / Estimated radiation absorbed dose, Rectum / Estimated radiation absorbed dose, Red marrow / Estimated radiation absorbed dose, Right colon / Estimated radiation absorbed dose, Salivary glands / Estimated radiation absorbed dose, Skeleton / Estimated radiation absorbed dose, Small intestine / Estimated radiation absorbed dose, Spleen / Estimated radiation absorbed dose, Stomach wall / Estimated radiation absorbed dose, Testes / Estimated radiation absorbed dose, Thymus / Estimated radiation absorbed dose, Thyroid / Estimated radiation absorbed dose, Total body / Estimated radiation absorbed dose, Urinary bladder: with tumor sink effect correction
[3] = mouse, with tumor sink effect correction
[4] = mouse, without tumor sink effect correction

In the case of `CC(C)C[C@H](NC(=O)[C@H](Cc1cnc[nH]1)N(C)C(=O)CNC(=O)[C@@H](NC(=O)[C@H](C)NC(=O)[C@H](Cc1c[nH]c2ccccc12)NC(=O)[C@H](CCC(N)=O)NC(=O)[C@@H](Cc1ccccc1)NC(=O)CN1CCC(NC(=O)CN2CCN(CC(=O)O)CCN(CC(=O)O)CCN(CC(=O)O)CC2)CC1)C(C)(C)C)C(=O)N1CC(F)(F)C[C@H]1C(N)=O` [[^177Lu]Lu-LW02060] [metal not drawn], the “tumor absorbed dose relative to [177Lu]Lu-LW02080” value ([1]; 1-g PC-3 tumor xenograft) was 5.8 times, the “tumor absorbed dose relative to [177Lu]Lu-ProBOMB5” value ([1]; 1-g PC-3 tumor xenograft) was 4.7 time and the “Radiation absorbed dose, PC-3 tumor (1 g)” value ([1]; 1-g PC-3 tumor xenograft) was 272 mGy/MBq. For the same compound, the “pancreas absorbed dose relative to [177Lu]Lu-LW02080” value ([1]; mouse) was “around 23 times”, the “Radiation absorbed dose, Bladder” value [1, 3] was 1510 mGy/MBq and the “Radiation absorbed dose, Brain” value [1, 3] was 2.39 mGy/MBq. For the same compound, the “Radiation absorbed dose, Heart” value [1, 3] was 6.10 mGy/MBq, the “Radiation absorbed dose, Kidneys” value [1, 3] was 148 mGy/MBq and the “Radiation absorbed dose, Large intestine” value [1, 3] was 62.9 mGy/MBq. For the same compound, the “Radiation absorbed dose, Liver” value [1, 3] was 31.2 mGy/MBq, the “Radiation absorbed dose, Lungs” value [1, 3] was 13.0 mGy/MBq and the “Radiation absorbed dose, Pancreas” value [1, 3] was 118 mGy/MBq. The “Radiation absorbed dose, Skeleton” value [1, 3] was 7.96 mGy/MBq, the “Radiation absorbed dose, Small intestine” value [1, 3] was 19.5 mGy/MBq and the “Radiation absorbed dose, Spleen” value [1, 3] was 24.2 mGy/MBq. The “Radiation absorbed dose, Stomach wall” value [1, 3] was 27.5 mGy/MBq, the “Radiation absorbed dose, Testes” value [1, 3] was 7.95 mGy/MBq and the “Radiation absorbed dose, Thyroid” value [1, 3] was 1.79 mGy/MBq. For the same compound, the “Radiation absorbed dose, Total body” value [1, 3] was 18.0 mGy/MBq, the “Radiation absorbed dose, Bladder” value [1, 4] was 734 mGy/MBq and the “Radiation absorbed dose, Brain” value [1, 4] was 1.16 mGy/MBq. For the same compound, the “Radiation absorbed dose, Heart” value [1, 4] was 2.96 mGy/MBq, the “Radiation absorbed dose, Kidneys” value [1, 4] was 72.1 mGy/MBq and the “Radiation absorbed dose, Large intestine” value [1, 4] was 30.6 mGy/MBq. The “Radiation absorbed dose, Liver” value [1, 4] was 15.2 mGy/MBq, the “Radiation absorbed dose, Lungs” value [1, 4] was 6.31 mGy/MBq and the “Radiation absorbed dose, Pancreas” value [1, 4] was 57.3 mGy/MBq. The “Radiation absorbed dose, Skeleton” value [1, 4] was 3.87 mGy/MBq, the “Radiation absorbed dose, Small intestine” value [1, 4] was 9.49 mGy/MBq and the “Radiation absorbed dose, Spleen” value [1, 4] was 11.8 mGy/MBq. The “Radiation absorbed dose, Stomach wall” value [1, 4] was 13.4 mGy/MBq, the “Radiation absorbed dose, Testes” value [1, 4] was 3.86 mGy/MBq and the “Radiation absorbed dose, Thyroid” value [1, 4] was 0.869 mGy/MBq. The “Radiation absorbed dose, Total body” value [1, 4] was 8.77 mGy/MBq, the “estimated pancreas absorbed dose relative to [177Lu]Lu-LW02080” value [2] was “around 30 times” and the Effective dose [2] was 1.16 × 10^−2 mSv/MBq. The “Estimated radiation absorbed dose, Adrenals” value [2] was 2.45 × 10^−2 mGy/MBq, the “Estimated radiation absorbed dose, Brain” value [2] was 2.85 × 10^−4 mGy/MBq and the “Estimated radiation absorbed dose, Esophagus” value [2] was 8.10 × 10^−4 mGy/MBq. For the same compound, the “Estimated radiation absorbed dose, Eyes” value [2] was 5.72 × 10^−4 mGy/MBq, the “Estimated radiation absorbed dose, Gallbladder wall” value [2] was 1.20 × 10^−3 mGy/MBq and the “Estimated radiation absorbed dose, Heart” value [2] was 2.66 × 10^−3 mGy/MBq. For the same compound, the “Estimated radiation absorbed dose, Kidneys” value [2] was 6.36 × 10^−2 mGy/MBq, the “Estimated radiation absorbed dose, Left colon” value [2] was 2.59 × 10^−2 mGy/MBq and the “Estimated radiation absorbed dose, Liver” value [2] was 1.29 × 10^−2 mGy/MBq. The “Estimated radiation absorbed dose, Lungs” value [2] was 5.31 × 10^−3 mGy/MBq, the “Estimated radiation absorbed dose, Pancreas” value [2] was 5.08 × 10^−2 mGy/MBq and the “Estimated radiation absorbed dose, Prostate” value [2] was 1.64 × 10^−3 mGy/MBq. For the same compound, the “Estimated radiation absorbed dose, Rectum” value [2] was 1.30 × 10^−2 mGy/MBq, the “Estimated radiation absorbed dose, Red marrow” value [2] was 7.68 × 10^−4 mGy/MBq and the “Estimated radiation absorbed dose, Right colon” value [2] was 1.35 × 10^−2 mGy/MBq. For the same compound, the “Estimated radiation absorbed dose, Salivary glands” value [2] was 5.91 × 10^−4 mGy/MBq, the “Estimated radiation absorbed dose, Skeleton” value [2] was 1.04 × 10^−3 mGy/MBq and the “Estimated radiation absorbed dose, Small intestine” value [2] was 7.60 × 10^−3 mGy/MBq. The “Estimated radiation absorbed dose, Spleen” value [2] was 9.47 × 10^−3 mGy/MBq, the “Estimated radiation absorbed dose, Stomach wall” value [2] was 3.70 × 10^−3 mGy/MBq and the “Estimated radiation absorbed dose, Testes” value [2] was 2.49 × 10^−3 mGy/MBq. The “Estimated radiation absorbed dose, Thymus” value [2] was 6.92 × 10^−4 mGy/MBq, the “Estimated radiation absorbed dose, Thyroid” value [2] was 6.38 × 10^−4 mGy/MBq and the “Estimated radiation absorbed dose, Total body” value [2] was 2.55 × 10^−3 mGy/MBq. For the same compound, the “Estimated radiation absorbed dose, Urinary bladder” value [2] was 1.50 × 10^−1 mGy/MBq.

In the case of `CC(C)C[C@@H](CN1CC(F)(F)C[C@H]1C(N)=O)NC(=O)[C@H](Cc1c[nH]cn1)NC(=O)CN(C)C(=O)[C@@H](NC(=O)[C@H](C)NC(=O)[C@H](Cc1c[nH]c2ccccc12)NC(=O)[C@H](CCC(N)=O)NC(=O)[C@@H](Cc1ccccc1)NC(=O)CN1CCC(NC(=O)CN2CCN(CC(=O)O)CCN(CC(=O)O)CCN(CC(=O)O)CC2)CC1)C(C)C` [[^177Lu]Lu-LW02080] [metal not drawn], the “Radiation absorbed dose, PC-3 tumor (1 g)” value ([1]; 1-g PC-3 tumor xenograft) was 47.0 mGy/MBq, the “Radiation absorbed dose, Bladder” value [1, 3] was 655 mGy/MBq and the “Radiation absorbed dose, Brain” value [1, 3] was 1.01 mGy/MBq. For the same compound, the “Radiation absorbed dose, Heart” value [1, 3] was 2.66 mGy/MBq, the “Radiation absorbed dose, Kidneys” value [1, 3] was 64.4 mGy/MBq and the “Radiation absorbed dose, Large intestine” value [1, 3] was 13.6 mGy/MBq. For the same compound, the “Radiation absorbed dose, Liver” value [1, 3] was 7.92 mGy/MBq, the “Radiation absorbed dose, Lungs” value [1, 3] was 5.21 mGy/MBq and the “Radiation absorbed dose, Pancreas” value [1, 3] was 5.03 mGy/MBq. For the same compound, the “Radiation absorbed dose, Skeleton” value [1, 3] was 5.77 mGy/MBq, the “Radiation absorbed dose, Small intestine” value [1, 3] was 10.2 mGy/MBq and the “Radiation absorbed dose, Spleen” value [1, 3] was 7.29 mGy/MBq. The “Radiation absorbed dose, Stomach wall” value [1, 3] was 10.2 mGy/MBq, the “Radiation absorbed dose, Testes” value [1, 3] was 3.38 mGy/MBq and the “Radiation absorbed dose, Thyroid” value [1, 3] was 0.781 mGy/MBq. The “Radiation absorbed dose, Total body” value [1, 3] was 6.71 mGy/MBq, the “Radiation absorbed dose, Bladder” value [1, 4] was 499 mGy/MBq and the “Radiation absorbed dose, Brain” value [1, 4] was 0.77 mGy/MBq. For the same compound, the “Radiation absorbed dose, Heart” value [1, 4] was 2.02 mGy/MBq, the “Radiation absorbed dose, Kidneys” value [1, 4] was 49.0 mGy/MBq and the “Radiation absorbed dose, Large intestine” value [1, 4] was 10.4 mGy/MBq. For the same compound, the “Radiation absorbed dose, Liver” value [1, 4] was 6.03 mGy/MBq, the “Radiation absorbed dose, Lungs” value [1, 4] was 3.96 mGy/MBq and the “Radiation absorbed dose, Pancreas” value [1, 4] was 3.83 mGy/MBq. The “Radiation absorbed dose, Skeleton” value [1, 4] was 4.39 mGy/MBq, the “Radiation absorbed dose, Small intestine” value [1, 4] was 7.74 mGy/MBq and the “Radiation absorbed dose, Spleen” value [1, 4] was 5.55 mGy/MBq. The “Radiation absorbed dose, Stomach wall” value [1, 4] was 7.79 mGy/MBq, the “Radiation absorbed dose, Testes” value [1, 4] was 2.57 mGy/MBq and the “Radiation absorbed dose, Thyroid” value [1, 4] was 0.594 mGy/MBq. The “Radiation absorbed dose, Total body” value [1, 4] was 5.11 mGy/MBq, the Effective dose [2] was 4.15 × 10^−3 mSv/MBq and the “Estimated radiation absorbed dose, Adrenals” value [2] was 4.24 × 10^−3 mGy/MBq. For the same compound, the “Estimated radiation absorbed dose, Brain” value [2] was 1.04 × 10^−4 mGy/MBq, the “Estimated radiation absorbed dose, Esophagus” value [2] was 3.14 × 10^−4 mGy/MBq and the “Estimated radiation absorbed dose, Eyes” value [2] was 2.45 × 10^−4 mGy/MBq. For the same compound, the “Estimated radiation absorbed dose, Gallbladder wall” value [2] was 4.15 × 10^−4 mGy/MBq, the “Estimated radiation absorbed dose, Heart” value [2] was 1.17 × 10^−3 mGy/MBq and the “Estimated radiation absorbed dose, Kidneys” value [2] was 2.78 × 10^−2 mGy/MBq. The “Estimated radiation absorbed dose, Left colon” value [2] was 5.58 × 10^−3 mGy/MBq, the “Estimated radiation absorbed dose, Liver” value [2] was 3.17 × 10^−3 mGy/MBq and the “Estimated radiation absorbed dose, Lungs” value [2] was 2.11 × 10^−3 mGy/MBq. For the same compound, the “Estimated radiation absorbed dose, Pancreas” value [2] was 1.69 × 10^−3 mGy/MBq, the “Estimated radiation absorbed dose, Prostate” value [2] was 6.94 × 10^−4 mGy/MBq and the “Estimated radiation absorbed dose, Rectum” value [2] was 3.00 × 10^−3 mGy/MBq. The “Estimated radiation absorbed dose, Red marrow” value [2] was 3.23 × 10^−4 mGy/MBq, the “Estimated radiation absorbed dose, Right colon” value [2] was 2.98 × 10^−3 mGy/MBq and the “Estimated radiation absorbed dose, Salivary glands” value [2] was 2.52 × 10^−4 mGy/MBq. For the same compound, the “Estimated radiation absorbed dose, Skeleton” value [2] was 4.73 × 10^−4 mGy/MBq, the “Estimated radiation absorbed dose, Small intestine” value [2] was 3.97 × 10^−3 mGy/MBq and the “Estimated radiation absorbed dose, Spleen” value [2] was 2.92 × 10^−3 mGy/MBq. For the same compound, the “Estimated radiation absorbed dose, Stomach wall” value [2] was 1.45 × 10^−3 mGy/MBq, the “Estimated radiation absorbed dose, Testes” value [2] was 1.05 × 10^−3 mGy/MBq and the “Estimated radiation absorbed dose, Thymus” value [2] was 2.85 × 10^−4 mGy/MBq. For the same compound, the “Estimated radiation absorbed dose, Thyroid” value [2] was 2.68 × 10^−4 mGy/MBq, the “Estimated radiation absorbed dose, Total body” value [2] was 9.77 × 10^−4 mGy/MBq and the “Estimated radiation absorbed dose, Urinary bladder” value [2] was 6.51 × 10^−2 mGy/MBq.
